For 23 targets, log2 fold change results are on record in the supplement of paper PMC10849652.

Amino acid sequences for entries named in this document (tags omitted). A change or cut given only in a name is not applied to a line headed by its entry.
UniProt P26368, whole entry, looked up: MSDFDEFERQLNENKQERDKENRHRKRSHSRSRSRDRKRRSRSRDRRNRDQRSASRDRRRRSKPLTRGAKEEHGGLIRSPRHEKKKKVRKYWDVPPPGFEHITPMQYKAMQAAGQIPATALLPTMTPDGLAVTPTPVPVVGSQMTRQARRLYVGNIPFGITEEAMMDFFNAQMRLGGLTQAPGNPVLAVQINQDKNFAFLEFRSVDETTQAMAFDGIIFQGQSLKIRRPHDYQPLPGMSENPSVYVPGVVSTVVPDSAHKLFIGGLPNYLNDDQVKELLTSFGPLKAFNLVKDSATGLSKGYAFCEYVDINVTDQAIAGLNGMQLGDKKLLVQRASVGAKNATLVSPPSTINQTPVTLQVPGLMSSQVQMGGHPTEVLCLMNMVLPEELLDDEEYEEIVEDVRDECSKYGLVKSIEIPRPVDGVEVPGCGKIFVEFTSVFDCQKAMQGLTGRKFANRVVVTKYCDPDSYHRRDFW
UniProt Q8NG11: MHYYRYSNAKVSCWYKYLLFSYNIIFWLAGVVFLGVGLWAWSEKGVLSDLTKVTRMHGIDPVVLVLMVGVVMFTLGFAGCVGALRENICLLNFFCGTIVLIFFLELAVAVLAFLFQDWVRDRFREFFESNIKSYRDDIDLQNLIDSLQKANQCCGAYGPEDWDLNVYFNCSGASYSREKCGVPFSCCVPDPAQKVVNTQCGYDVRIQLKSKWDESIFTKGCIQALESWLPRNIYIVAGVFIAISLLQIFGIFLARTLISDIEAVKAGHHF
UniProt Q8TBC4: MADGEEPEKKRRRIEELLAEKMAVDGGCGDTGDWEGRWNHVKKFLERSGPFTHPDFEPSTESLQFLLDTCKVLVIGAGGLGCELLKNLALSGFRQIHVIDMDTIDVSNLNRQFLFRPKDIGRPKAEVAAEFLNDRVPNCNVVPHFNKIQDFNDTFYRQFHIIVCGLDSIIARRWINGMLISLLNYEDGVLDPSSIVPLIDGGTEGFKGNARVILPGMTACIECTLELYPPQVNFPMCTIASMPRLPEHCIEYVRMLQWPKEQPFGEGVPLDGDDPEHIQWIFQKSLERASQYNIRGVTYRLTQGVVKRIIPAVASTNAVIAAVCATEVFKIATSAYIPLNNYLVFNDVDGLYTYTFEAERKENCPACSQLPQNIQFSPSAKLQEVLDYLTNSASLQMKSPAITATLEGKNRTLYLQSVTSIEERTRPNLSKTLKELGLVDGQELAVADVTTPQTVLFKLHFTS
UniProt P83876: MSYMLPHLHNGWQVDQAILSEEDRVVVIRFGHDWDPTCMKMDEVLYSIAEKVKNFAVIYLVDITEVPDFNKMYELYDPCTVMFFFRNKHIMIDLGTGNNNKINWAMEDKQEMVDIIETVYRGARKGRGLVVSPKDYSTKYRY
UniProt P68036, whole entry, looked up: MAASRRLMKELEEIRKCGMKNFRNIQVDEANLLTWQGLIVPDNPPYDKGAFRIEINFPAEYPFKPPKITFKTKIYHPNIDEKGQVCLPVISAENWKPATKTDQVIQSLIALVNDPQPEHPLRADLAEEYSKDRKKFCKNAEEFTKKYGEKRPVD
UniProt Q9BSL1: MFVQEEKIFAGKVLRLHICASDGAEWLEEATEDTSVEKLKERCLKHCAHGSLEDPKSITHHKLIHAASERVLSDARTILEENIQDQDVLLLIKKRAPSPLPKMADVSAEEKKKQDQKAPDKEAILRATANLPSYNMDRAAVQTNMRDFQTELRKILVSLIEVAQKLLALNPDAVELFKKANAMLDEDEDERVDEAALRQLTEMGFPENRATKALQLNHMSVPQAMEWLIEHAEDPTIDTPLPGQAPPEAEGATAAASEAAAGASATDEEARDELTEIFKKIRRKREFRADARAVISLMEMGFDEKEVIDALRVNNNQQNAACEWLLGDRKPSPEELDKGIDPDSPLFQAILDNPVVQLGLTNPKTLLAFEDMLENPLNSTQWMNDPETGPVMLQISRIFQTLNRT
UniProt Q8N5M4: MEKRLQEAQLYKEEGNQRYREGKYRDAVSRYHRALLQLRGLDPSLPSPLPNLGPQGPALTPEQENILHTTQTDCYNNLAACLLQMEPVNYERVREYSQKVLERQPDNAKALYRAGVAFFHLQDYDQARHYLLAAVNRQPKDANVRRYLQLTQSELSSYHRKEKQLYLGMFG
UniProt P22314: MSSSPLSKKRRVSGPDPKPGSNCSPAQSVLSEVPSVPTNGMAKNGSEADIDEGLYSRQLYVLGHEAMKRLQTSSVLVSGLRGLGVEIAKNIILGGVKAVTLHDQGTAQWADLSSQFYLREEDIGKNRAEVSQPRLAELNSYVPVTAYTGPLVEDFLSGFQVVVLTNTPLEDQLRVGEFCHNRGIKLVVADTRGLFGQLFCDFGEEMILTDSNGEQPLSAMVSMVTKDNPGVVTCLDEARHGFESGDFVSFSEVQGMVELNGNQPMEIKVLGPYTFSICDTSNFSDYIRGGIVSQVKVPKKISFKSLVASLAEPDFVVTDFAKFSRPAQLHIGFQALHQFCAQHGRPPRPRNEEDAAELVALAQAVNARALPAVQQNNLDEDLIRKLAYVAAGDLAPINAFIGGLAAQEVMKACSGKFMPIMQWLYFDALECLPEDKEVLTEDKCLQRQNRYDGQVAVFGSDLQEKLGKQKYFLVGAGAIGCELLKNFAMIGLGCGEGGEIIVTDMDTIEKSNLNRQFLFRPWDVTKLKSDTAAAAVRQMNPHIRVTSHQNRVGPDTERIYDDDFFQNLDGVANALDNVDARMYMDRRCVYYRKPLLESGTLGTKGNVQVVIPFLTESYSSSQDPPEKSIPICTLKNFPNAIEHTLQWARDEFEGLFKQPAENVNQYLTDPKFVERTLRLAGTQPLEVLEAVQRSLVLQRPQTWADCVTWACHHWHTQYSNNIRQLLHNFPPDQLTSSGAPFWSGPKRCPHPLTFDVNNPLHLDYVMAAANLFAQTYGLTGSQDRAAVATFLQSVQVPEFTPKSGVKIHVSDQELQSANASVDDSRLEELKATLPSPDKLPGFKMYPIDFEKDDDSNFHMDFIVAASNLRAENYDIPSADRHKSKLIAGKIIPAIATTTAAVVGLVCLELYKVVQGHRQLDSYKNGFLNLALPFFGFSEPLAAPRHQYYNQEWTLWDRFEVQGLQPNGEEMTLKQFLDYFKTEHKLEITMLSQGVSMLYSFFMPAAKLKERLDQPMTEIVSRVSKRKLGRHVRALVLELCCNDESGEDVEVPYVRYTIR
UniProt P43897: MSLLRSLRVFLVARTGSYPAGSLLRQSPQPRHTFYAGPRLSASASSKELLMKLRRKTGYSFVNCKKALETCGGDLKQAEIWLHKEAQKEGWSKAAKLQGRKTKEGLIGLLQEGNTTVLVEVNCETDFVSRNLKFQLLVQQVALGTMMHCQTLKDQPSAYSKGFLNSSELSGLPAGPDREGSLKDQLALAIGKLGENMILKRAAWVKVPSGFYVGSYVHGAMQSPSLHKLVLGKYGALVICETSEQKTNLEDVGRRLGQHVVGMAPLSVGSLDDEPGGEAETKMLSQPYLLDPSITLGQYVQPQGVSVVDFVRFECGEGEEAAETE
UniProt Q9UJT0: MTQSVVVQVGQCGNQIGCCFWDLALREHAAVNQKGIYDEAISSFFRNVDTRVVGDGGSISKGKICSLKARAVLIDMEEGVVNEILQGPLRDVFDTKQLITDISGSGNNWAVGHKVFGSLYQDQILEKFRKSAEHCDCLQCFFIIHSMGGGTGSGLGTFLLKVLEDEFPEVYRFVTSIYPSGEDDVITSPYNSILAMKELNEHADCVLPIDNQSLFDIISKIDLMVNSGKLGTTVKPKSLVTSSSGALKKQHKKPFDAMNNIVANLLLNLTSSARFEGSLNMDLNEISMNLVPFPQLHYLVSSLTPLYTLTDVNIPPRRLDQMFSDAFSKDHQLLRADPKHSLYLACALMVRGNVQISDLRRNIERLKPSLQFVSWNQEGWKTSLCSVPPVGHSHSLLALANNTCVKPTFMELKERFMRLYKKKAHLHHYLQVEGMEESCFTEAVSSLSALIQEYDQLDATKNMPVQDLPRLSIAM
UniProt Q969T4: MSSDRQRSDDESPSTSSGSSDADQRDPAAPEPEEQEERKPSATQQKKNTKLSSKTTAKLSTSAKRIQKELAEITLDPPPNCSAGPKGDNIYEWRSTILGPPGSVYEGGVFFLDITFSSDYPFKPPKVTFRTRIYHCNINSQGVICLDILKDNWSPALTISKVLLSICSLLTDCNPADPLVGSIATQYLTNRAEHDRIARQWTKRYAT
UniProt P61081: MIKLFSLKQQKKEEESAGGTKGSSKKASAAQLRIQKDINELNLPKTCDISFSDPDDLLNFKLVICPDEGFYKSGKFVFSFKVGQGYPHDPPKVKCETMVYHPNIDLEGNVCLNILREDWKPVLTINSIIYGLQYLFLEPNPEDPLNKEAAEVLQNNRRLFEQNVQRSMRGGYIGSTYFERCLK
UniProt Q96AE7: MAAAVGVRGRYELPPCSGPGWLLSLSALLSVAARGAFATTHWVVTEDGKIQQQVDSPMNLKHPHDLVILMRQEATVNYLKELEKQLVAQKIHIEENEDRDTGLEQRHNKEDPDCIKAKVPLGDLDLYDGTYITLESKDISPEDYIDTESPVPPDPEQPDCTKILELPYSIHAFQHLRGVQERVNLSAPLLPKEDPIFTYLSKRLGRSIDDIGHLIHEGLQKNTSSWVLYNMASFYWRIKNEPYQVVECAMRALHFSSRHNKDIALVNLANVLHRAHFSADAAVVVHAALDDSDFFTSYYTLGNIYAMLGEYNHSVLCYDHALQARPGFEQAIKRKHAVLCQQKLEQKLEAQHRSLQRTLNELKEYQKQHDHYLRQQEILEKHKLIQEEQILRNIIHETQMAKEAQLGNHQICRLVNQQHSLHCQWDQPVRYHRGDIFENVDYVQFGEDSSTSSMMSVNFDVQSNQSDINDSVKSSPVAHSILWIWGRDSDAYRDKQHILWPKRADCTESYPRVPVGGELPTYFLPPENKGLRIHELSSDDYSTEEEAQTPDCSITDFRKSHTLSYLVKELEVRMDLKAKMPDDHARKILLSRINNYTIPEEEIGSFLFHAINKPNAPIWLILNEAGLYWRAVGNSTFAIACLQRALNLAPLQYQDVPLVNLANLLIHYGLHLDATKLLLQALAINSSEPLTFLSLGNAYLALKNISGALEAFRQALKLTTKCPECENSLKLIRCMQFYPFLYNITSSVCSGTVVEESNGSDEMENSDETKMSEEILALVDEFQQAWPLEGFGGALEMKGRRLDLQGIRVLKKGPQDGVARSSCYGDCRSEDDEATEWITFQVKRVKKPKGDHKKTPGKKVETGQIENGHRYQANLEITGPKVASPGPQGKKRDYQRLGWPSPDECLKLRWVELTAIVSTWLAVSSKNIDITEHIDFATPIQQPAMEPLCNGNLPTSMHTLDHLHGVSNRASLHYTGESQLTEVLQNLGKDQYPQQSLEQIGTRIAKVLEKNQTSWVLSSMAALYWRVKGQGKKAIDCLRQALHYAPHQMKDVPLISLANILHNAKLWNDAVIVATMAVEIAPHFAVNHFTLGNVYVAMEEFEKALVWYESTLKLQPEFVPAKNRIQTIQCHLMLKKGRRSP
UniProt O43156, whole entry, looked up: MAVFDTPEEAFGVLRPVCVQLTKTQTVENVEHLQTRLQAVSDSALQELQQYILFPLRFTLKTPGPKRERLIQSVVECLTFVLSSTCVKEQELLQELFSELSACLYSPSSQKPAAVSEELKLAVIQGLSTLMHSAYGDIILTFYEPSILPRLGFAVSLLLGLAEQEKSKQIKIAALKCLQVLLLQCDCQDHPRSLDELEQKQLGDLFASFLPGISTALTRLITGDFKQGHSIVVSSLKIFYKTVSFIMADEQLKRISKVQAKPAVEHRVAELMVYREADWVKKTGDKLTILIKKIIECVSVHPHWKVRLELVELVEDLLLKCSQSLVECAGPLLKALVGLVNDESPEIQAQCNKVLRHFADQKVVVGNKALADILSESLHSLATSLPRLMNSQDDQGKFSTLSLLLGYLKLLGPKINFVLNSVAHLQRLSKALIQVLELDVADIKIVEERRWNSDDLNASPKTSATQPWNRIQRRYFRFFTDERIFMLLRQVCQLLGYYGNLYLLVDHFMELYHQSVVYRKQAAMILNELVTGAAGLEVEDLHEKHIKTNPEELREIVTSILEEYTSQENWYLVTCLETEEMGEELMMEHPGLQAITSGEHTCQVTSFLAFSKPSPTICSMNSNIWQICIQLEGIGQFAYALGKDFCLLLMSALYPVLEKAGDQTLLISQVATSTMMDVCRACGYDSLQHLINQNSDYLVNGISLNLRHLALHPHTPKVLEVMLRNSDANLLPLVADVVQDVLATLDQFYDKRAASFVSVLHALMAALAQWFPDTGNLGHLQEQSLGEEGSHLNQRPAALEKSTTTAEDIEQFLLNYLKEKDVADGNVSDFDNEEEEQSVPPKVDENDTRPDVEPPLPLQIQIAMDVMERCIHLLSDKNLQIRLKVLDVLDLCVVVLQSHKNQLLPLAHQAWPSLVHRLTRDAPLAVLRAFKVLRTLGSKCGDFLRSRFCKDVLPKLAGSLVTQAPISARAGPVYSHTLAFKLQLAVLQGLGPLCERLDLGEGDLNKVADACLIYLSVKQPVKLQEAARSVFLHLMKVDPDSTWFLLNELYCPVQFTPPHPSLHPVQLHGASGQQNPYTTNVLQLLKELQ

This is one part of the list.

Compound in this test: c1cc(OCCN2CCCCC2)cc(-c2n[nH]c3ccc(-c4nnc[nH]4)cc23)c1
The test can be described thus: log2 fold change, soluble protein after heating vs DMSO (PISA); higher = thermal stabilisation; K562 cells, 10 uM, 30 min; active = over 0.2 and 3.5 SD of the protein, either way, in both replicates (recomputed). Put shortly:
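K562 cells at 2×10^6 cells/mL were treated for 30 min with 10 μM compound, and aliquots were heated for 3 min over 48°C-58°C before pooling. Extraction used PBS with 0.5% NP-40 at 4°C, and soluble protein was the supernatant after 21,000xg for 90 min, measured by TMTpro 16plex LC-MS/MS with channel sums equalised. Thermal stability values, relative to control samples and from duplicates, are log2 fold changes.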
With UBAP1 isoform 4 (UniProt Q9NZ09), the log2 fold change was inactive: -0.049.

For U2AF2 (UniProt P26368), the log2 fold change is inactive: -0.09. For TSPAN14 (UniProt Q8NG11) the value was inactive: -0.078; for UBA3 (UniProt Q8TBC4), inactive: 0.029; for TXNL4A (UniProt P83876), inactive: -0.072. Turning to TXNDC9 (UniProt O14530), the log2 fold change is inactive: -0.009. In the case of UBE2L3 isoform 3 (UniProt P68036), the log2 fold change was inactive: 0.001.

Take UBAC1 (UniProt Q9BSL1): the log2 fold change was inactive: -0.05.

Consider TTF2 (UniProt Q9UNY4), for which the log2 fold change was inactive: -0.045. As for UBE3A (UniProt Q05086), the log2 fold change was inactive: -0.023. As for TTC9C (UniProt Q8N5M4), the log2 fold change is inactive: 0.017. To TTC4 (UniProt O95801) belongs inactive: -0.014; to UBA1 (UniProt P22314), inactive: -0.028; to TSFM (UniProt P43897), inactive: 0.

Regarding TSR2 (UniProt Q969E8), the log2 fold change is inactive: 0.15.

Consider TUBE1 (UniProt Q9UJT0), for which the log2 fold change is inactive: -0.04. As for UBE2S (UniProt Q16763), the log2 fold change is inactive: -0.032. For TXNRD2 (UniProt Q9NNW7) the value was inactive: -0.01; for UBE2E3 (UniProt Q969T4), inactive: -0.007; for UBAP2 (UniProt Q5T6F2), inactive: 0.026. For UBE2M (UniProt P61081), the log2 fold change is inactive: -0.004.

Regarding TTC17 (UniProt Q96AE7), the log2 fold change was inactive: -0.106. To TTI1 (UniProt O43156) belongs inactive: -0.099.
